# Source: PubChem BioAssay AID1259314 (Drosophila RNAi Screening Center, 2017)
# Aim: 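Transmembrane protein genes affecting ATP after manganese overload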 (primary screen)
# Cell system: Drosophila S2R+ cells
# Knock-down reagent: long dsRNA against Drosophila genes
# Duration: 5 days (4 days knock-down, then 1 day metal exposure)
# Treatment: manganese chloride added to 15 mM for 24 hours
# Detection: 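Luciferase ATP signal used as a proxy for viable cell number, reported as one averaged z-score per dsRNA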
# Scale: mean ATP z-score: higher = more ATP than the plate average, more viable cells under manganese
# Call rule: 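a mean ATP z-score past 1.5 in either direction is called active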
# Meaning of the calls: active = strong ATP change, up or down; inactive = no strong ATP change
# In all, the deposit lists about 3,100 reagents; below is a random part of them. 289 of them (9.3%) were called active. 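Active includes both higher and lower ATP than plate average; check the z-score sign for direction.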 A plus sign joins genes that one reagent is predicted to hit. Not stated in the record: the amount of reagent.
Target gene,PubChem SID,mean ATP z-score,activity call
Sema1b,SID104187342,-0.696,inactive
Sema1b,SID104206096,-0.368,inactive
CG14204,SID104199351,-0.239,inactive
CG14204,SID104208485,0.502,inactive
gny,SID104182602,1.07,inactive
gny,SID104217325,1.14,inactive
MsR1,SID104188407,-0.152,inactive
MsR1,SID104205011,0.372,inactive
Coq4 + frc,SID104190173,-0.832,inactive
SsRbeta,SID104191082,0.324,inactive
sll,SID104196063,2.22,active
sll,SID104208408,-0.0948,inactive
CG8219,SID104190763,-0.148,inactive
CG8219,SID104203272,0.812,inactive
dpy,SID104180025,-0.33,inactive
dpy,SID104180026,-0.0993,inactive
dpy,SID104180264,-0.744,inactive
CG6282,SID104208068,0.289,inactive
CG3285,SID104180381,-0.655,inactive
Ir94d,SID104201280,-0.564,inactive
dnt,SID104204430,0.812,inactive
dnt,SID104214325,1.79,active
bbc,SID104201817,-2.13,active
CG3638,SID104198325,-0.243,inactive
CG3638,SID104203895,1.96,active
Desat2,SID104204438,-0.623,inactive
Desat2,SID104217073,-0.0571,inactive
SdhD,SID104194007,-0.441,inactive
SdhD,SID104217383,0.25,inactive
CG1806,SID104199579,0.198,inactive
Indy-2 + CG33934,SID104195477,0.908,active
Indy-2 + CG33934,SID104195478,-0.525,inactive
Oatp74D,SID104189283,0.45,inactive
Oatp74D,SID104190675,0.0666,inactive
CG33253,SID104199339,0.862,inactive
CG33253,SID104217276,0.683,inactive
Vha100-2,SID104193944,1.02,inactive
Vha100-2,SID104207771,0.625,inactive
CG31141,SID104193438,-1.31,inactive
CG31141,SID104208052,0.755,inactive
Ir8a,SID104197609,0.241,inactive
Ir8a,SID104197661,0.499,inactive
tkv,SID104183415,-0.116,inactive
tkv,SID104202021,-0.471,inactive
tkv,SID104204501,-0.0722,inactive
CG33116,SID104181837,-0.326,inactive
Trpm,SID104186421,0.506,inactive
Trpm,SID104206141,0.145,inactive
Trpm,SID104207586,2.07,active
GluRIIA,SID104183126,0.147,inactive
Ten-m,SID104191456,-0.695,inactive
Ten-m,SID104191674,-1.5,inactive
Cralbp + PGRP-LD + Pmi,SID104189535,-1.15,inactive
Ca-Ma2d,SID104208274,0.357,inactive
Or85a,SID104196556,-0.0577,inactive
nes,SID104191167,-0.178,inactive
nes,SID104217230,-1.02,inactive
PIG-B,SID104202015,0.0132,inactive
PIG-B,SID104217234,-0.758,inactive
Vang,SID104187362,-0.383,inactive
Shawl,SID104182001,-0.186,inactive
Shawl,SID104182540,-0.938,inactive
Shawl,SID104203130,-0.744,inactive
5-HT7,SID104192427,-0.201,inactive
5-HT7,SID104203461,0.125,inactive
Nup50,SID104186619,-0.99,inactive
Nup50,SID104205014,-0.092,inactive
Nach,SID104187270,1.23,inactive
Nach,SID104217438,0.719,inactive
moody,SID104198307,0.238,inactive
Kap-alpha1,SID104191148,-1.63,active
Or1a,SID104198481,0.0225,inactive
Or1a,SID104217048,0.413,inactive
mthl15,SID104180912,-0.265,inactive
mthl15,SID104217318,0.971,inactive
VAChT,SID104193103,-0.635,inactive
VAChT,SID104202976,2.16,active
brv2,SID104190018,-0.0442,inactive
brv2,SID104208340,0.246,inactive
CG15211,SID104199449,0.508,inactive
CG15211,SID104217343,-0.334,inactive
CG17752,SID104195054,0.647,inactive
CG17752,SID104204809,0.342,inactive
hoe1,SID104180057,-0.0486,inactive
hoe1,SID104180145,0.0262,inactive
CG5262,SID104191565,-0.084,inactive
CG5262,SID104217118,0.148,inactive
CG10465,SID104184640,0.342,inactive
CG10465,SID104217471,0.553,inactive
Cad86C,SID104195403,0.0165,inactive
Cad86C,SID104206146,-1.48,inactive
Cad86C,SID104206638,1.3,inactive
Agpat2,SID104183324,1.77,active
Agpat2,SID104206445,0.107,inactive
ppk6,SID104185854,0.959,inactive
ppk6,SID104217456,3.11,active
Vmat + CG13330,SID104186157,-0.206,inactive
Vmat + CG13330,SID104207144,1.53,active
CG8323,SID104186941,-0.718,inactive
Sugb,SID104190607,0.279,inactive
Sugb,SID104217229,-0.993,inactive
CG13384,SID104182050,1.86,active
Hmt-1,SID104195347,0.53,inactive
Hmt-1,SID104217152,-0.543,inactive
CG31663,SID104179870,-0.792,inactive
CG31663,SID104180181,-0.535,inactive
CG31663,SID104180182,0.448,inactive
CG31663,SID104180185,-0.996,inactive
CG15531,SID104194860,1.73,active
Inx7 + cm,SID104198545,0.00261,inactive
